Structures were worked out from names or drawings and are uncertain.
What was measured:
ACE (Sigma, A2580) = ACE (Sigma, A2580) (Sus scrofa, UniProt F1RRW5); assay: ACE enzymatic activity assay; details: read-out: ACE Activity; Ki class; compounds tested in 5% DMSO, 12 concentrations; tested form: 0.2 HCl
Carboxypeptidase A = Carboxypeptidase A (Bos taurus, UniProt P00730); assay: Carboxypeptidase A activity assay; details: read-out: Carboxypeptidase A Activity; Ki class; compounds tested in 5% DMSO, 12 concentrations; tested form: 0.2 HCl

By UniProt entry, the sequences of proteins in these tests, tags left out. Residues count along the entry.
UniProt F1RRW5, 34-1309 limits assumed: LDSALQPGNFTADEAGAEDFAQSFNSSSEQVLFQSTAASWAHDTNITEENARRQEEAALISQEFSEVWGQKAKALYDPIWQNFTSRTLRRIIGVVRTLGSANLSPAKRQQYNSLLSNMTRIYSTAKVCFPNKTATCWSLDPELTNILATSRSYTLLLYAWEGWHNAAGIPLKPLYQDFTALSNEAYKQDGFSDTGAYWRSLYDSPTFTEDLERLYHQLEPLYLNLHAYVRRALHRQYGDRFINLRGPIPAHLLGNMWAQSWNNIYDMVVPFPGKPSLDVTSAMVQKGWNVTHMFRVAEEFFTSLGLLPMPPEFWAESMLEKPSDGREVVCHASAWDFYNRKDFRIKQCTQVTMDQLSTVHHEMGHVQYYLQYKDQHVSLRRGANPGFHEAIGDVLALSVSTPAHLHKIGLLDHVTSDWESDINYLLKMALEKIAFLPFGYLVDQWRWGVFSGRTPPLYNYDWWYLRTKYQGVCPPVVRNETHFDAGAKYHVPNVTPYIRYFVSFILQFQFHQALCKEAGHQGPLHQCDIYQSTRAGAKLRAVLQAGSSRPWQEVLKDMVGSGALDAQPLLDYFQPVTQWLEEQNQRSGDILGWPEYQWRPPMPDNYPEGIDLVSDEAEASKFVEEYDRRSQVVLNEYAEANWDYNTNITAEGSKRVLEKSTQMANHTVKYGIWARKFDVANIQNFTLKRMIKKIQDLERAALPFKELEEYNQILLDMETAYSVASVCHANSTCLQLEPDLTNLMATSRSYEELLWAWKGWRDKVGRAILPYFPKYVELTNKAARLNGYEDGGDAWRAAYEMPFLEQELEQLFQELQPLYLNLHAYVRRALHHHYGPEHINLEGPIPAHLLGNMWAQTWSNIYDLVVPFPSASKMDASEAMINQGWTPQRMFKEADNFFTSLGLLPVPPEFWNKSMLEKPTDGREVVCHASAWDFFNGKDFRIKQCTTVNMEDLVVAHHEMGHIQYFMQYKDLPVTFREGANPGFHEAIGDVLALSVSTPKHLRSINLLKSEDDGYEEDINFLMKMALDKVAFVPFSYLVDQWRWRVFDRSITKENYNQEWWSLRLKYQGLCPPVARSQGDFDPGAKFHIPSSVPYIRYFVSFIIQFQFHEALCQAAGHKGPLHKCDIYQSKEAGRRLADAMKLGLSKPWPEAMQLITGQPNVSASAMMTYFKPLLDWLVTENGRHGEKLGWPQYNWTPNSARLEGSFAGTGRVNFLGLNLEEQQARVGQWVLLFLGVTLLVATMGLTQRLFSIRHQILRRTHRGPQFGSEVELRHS
UniProt P00730, 111-419 limits assumed: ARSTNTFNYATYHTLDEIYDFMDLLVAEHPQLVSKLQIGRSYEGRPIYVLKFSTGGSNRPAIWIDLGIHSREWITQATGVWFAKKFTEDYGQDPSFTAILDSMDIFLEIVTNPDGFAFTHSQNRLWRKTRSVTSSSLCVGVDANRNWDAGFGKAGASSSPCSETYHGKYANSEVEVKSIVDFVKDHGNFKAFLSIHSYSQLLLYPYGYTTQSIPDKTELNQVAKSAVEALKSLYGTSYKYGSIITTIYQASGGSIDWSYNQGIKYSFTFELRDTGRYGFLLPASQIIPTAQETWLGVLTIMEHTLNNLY

CCC(C)C(N[C@H](CCc1ccccc1)C(=O)O)C(=O)O (some centres unmarked)
Ki (ACE (Sigma, A2580)): > 50 µM | Ki (Carboxypeptidase A): > 50 µM

— patent US7045532B2 (Millennium Pharmaceuticals, Inc., priority 1999, dated 2006)
